Data published in PMC8120699.
These are yes or no findings as the source states them, for the method shown. Binding seen in cells or lysates may run through a third protein. A yes stands for co-enrichment or nearness to the bait. Other partners may have been found. Where a sequence is shown, tags or fusion partners need not be part of it.

By UniProt entry, the sequences of proteins in these tests, tags left out. Residues count along the entry.
UniProt Q02413, residues 50-1049: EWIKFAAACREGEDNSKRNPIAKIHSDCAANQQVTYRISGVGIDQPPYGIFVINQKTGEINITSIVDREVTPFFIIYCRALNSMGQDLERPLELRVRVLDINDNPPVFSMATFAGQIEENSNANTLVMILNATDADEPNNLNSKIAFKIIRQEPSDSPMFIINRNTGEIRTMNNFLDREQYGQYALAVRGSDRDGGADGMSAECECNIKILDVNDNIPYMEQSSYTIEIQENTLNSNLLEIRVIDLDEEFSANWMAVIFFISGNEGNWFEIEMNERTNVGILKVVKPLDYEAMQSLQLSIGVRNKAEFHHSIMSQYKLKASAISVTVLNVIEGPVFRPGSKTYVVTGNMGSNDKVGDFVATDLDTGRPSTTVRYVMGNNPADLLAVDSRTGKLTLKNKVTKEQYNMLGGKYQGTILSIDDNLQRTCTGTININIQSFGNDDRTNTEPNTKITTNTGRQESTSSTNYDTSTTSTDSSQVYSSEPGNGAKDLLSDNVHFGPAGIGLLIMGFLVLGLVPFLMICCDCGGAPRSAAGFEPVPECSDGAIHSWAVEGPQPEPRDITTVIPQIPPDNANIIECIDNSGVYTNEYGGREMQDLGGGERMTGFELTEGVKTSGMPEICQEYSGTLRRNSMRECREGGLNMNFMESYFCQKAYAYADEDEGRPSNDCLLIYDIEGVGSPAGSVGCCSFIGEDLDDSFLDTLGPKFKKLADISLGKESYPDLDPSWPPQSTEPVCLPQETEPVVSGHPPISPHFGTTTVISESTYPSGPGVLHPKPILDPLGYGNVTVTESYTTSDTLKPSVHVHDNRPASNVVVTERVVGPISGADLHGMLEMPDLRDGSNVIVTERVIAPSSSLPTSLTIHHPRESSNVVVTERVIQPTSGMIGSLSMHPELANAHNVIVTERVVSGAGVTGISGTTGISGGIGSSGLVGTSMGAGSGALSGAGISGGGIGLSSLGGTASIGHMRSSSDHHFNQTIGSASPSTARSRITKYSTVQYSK
UniProt P10809, residues 27-573: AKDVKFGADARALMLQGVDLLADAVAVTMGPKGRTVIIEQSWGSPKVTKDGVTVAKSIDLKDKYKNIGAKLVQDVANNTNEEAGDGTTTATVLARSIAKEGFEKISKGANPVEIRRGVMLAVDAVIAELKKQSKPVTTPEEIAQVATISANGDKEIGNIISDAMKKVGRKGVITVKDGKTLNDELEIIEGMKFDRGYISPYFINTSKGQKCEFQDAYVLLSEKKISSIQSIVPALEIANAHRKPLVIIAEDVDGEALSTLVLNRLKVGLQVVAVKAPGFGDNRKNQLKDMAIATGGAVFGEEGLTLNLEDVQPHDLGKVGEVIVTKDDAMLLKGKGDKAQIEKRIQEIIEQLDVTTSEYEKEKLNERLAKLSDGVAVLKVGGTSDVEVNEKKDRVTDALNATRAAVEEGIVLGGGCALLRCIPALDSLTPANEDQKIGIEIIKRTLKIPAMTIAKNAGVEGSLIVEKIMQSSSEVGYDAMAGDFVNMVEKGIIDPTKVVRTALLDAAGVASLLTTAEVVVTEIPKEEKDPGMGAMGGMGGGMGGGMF
UniProt P08238: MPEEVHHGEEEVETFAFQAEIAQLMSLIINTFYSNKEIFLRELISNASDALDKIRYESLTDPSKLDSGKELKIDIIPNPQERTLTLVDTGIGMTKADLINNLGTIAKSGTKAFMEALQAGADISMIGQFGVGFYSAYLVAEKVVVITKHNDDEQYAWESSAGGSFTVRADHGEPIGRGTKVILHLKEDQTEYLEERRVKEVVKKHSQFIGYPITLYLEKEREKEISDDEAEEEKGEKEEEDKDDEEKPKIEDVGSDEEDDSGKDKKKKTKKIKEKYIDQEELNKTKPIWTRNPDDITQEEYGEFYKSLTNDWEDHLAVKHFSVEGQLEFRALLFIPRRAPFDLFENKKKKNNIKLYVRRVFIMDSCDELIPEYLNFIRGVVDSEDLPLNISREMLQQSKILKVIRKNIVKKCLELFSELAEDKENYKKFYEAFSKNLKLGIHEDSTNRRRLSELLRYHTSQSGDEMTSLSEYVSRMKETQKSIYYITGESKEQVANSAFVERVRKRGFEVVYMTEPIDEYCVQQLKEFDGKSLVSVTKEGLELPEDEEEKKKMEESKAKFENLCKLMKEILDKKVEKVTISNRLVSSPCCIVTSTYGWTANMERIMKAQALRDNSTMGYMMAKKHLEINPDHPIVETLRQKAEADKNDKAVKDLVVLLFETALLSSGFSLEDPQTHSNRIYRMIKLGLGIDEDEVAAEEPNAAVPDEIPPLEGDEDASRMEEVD
UniProt P07737: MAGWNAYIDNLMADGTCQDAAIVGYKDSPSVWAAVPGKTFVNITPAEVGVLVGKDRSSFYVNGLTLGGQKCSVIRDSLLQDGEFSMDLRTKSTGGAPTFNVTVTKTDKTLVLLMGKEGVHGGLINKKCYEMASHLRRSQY
UniProt P50990: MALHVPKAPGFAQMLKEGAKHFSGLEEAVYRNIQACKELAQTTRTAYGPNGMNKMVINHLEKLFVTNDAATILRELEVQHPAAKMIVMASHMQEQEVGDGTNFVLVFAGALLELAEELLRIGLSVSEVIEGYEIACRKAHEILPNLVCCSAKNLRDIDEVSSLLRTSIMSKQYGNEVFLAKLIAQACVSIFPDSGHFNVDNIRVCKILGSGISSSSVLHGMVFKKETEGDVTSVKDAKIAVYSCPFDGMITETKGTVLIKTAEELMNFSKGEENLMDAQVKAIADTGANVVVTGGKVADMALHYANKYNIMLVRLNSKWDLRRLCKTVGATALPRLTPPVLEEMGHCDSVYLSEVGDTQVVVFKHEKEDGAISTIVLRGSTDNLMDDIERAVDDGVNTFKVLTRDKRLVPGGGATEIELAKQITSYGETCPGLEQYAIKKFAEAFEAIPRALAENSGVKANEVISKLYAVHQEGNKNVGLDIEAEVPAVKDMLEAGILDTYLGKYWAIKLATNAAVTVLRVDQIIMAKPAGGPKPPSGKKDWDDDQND
UniProt P48643: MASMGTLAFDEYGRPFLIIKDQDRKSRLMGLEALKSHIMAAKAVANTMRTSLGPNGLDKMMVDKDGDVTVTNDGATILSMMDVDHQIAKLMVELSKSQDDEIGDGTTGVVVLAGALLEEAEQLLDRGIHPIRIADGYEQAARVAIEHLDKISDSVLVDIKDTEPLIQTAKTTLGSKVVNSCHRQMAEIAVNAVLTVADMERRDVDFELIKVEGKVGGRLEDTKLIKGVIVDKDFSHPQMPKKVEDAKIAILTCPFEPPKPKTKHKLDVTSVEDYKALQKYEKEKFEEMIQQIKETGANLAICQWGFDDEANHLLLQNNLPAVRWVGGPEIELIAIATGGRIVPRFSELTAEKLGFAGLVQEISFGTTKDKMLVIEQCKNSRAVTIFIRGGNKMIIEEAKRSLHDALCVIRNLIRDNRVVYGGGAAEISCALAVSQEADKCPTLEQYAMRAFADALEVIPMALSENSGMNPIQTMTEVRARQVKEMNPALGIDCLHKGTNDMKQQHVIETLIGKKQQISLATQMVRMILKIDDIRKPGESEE
UniProt P0DMV8: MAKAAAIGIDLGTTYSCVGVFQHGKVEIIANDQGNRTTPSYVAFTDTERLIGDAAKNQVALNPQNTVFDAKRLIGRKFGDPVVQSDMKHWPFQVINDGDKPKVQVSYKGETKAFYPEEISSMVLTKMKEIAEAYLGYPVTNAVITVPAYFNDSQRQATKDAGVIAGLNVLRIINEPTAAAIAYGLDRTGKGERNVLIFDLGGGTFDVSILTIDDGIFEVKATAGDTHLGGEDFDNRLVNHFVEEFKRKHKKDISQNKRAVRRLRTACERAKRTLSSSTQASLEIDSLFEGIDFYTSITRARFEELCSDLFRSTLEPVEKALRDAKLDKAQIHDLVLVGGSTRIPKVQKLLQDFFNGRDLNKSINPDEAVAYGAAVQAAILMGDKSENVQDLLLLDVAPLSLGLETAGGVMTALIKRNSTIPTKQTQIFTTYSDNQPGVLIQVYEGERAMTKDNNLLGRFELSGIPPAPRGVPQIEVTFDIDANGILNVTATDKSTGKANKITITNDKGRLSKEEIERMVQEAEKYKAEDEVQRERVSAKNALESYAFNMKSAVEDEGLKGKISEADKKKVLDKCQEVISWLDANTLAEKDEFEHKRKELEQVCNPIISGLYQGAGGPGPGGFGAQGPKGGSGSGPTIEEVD
UniProt Q99497: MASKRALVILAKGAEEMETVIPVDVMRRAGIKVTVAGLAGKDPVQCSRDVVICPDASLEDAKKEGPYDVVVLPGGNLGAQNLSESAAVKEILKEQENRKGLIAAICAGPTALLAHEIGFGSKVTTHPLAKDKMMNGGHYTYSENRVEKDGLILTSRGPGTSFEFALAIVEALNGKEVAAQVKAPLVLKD

T1: Flag-PUS7 (pseudouridine synthase 7, wild type, overexpressed from lentivirus LV-PUS7) (UniProt Q96PZ0)
T1 sequence: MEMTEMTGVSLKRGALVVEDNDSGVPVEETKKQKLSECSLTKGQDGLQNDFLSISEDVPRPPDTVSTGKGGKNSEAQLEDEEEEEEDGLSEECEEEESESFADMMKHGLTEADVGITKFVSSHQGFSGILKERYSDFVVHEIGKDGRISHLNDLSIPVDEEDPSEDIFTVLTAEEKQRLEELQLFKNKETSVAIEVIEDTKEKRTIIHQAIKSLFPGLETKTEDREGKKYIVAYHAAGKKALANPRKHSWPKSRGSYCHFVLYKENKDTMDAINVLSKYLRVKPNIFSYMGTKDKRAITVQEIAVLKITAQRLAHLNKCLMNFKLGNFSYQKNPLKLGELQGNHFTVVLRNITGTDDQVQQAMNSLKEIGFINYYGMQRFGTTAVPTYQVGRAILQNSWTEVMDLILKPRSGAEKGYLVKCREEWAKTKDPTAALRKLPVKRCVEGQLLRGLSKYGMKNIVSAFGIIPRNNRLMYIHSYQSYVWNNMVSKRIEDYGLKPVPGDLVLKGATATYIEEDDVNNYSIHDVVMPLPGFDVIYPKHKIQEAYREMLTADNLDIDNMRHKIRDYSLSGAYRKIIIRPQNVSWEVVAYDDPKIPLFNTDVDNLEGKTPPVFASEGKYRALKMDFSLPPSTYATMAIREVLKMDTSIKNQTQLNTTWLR

B1: CCT2 (protein, UniProt P78371 1-535)
chain: MASLSLAPVNIFKAGADEERAETARLTSFIGAIAIGDLVKSTLGPKGMDKILLSSGRDASLMVTNDGATILKNIGVDNPAAKVLVDMSRVQDDEVGDGTTSVTVLAAELLREAESLIAKKIHPQTIIAGWREATKAAREALLSSAVDHGSDEVKFRQDLMNIAGTTLSSKLLTHHKDHFTKLAVEAVLRLKGSGNLEAIHIIKKLGGSLADSYLDEGFLLDKKIGVNQPKRIENAKILIANTGMDTDKIKIFGSRVRVDSTAKVAEIEHAEKEKMKEKVERILKHGINCFINRQLIYNYPEQLFGAAGVMAIEHADFAGVERLALVTGGEIASTFDHPELVKLGSCKLIEEVMIGEDKLIHFSGVALGEACTIVLRGATQQILDEAERSLHDALCVLAQTVKDSRTVYGGGCSEMLMAHAVTQLANRTPGKEAVAMESYAKALRMLPTIIADNAGYDSADLVAQLRAAHSEGNTTAGLDMREGTIGDMAILGITESFQVKRQVLLSAAEAAEVILRVDNIIKAAPRKRVPDHHPC

biological target: T1, Flag-PUS7 (pseudouridine synthase 7, wild type, overexpressed from lentivirus LV-PUS7); assay: affinity purification with mass spectrometry; DLD1 cells transfected with Flag-PUS7, immunoprecipitated with anti-Flag magnetic beads, LC-MS/MS; IgG control

binding, binds:
FLNA (from UniProt P21333 1-2647)
DSG1 (from UniProt Q02413 50-1049)
HSPD1 (from UniProt P10809 27-573)
HSP90AA1 (from UniProt P07900 1-732)
HSP90AB1 (from UniProt P08238 1-724)
PFN1 (from UniProt P07737 1-140)
CCT8 (from UniProt P50990 1-548)
CALR (from UniProt P27797 18-417)
CCT5 (from UniProt P48643 1-541)
HSPA1A (from UniProt P0DMV8 1-641)
PARK7 (from UniProt Q99497 1-189)
B1
